# Laboratory results as given in patent publication US20250281576A1 (priority 2021, published 2025).
# For at least one compound, name, drawing or mass did not settle the structure.
# Columns and labels:
# SARS-CoV-2 [1] = assay: Comparison with Remdesivir, plaque assay (Example 2); assay type: cell-based
# SARS-CoV-2 [2] = details: known value; read-out: EC50 of Remdesivir; cited from earlier work
# SARS-CoV-2 [3] = assay: Comparison with Remdesivir, real-time quantitative RT-qPCR (Example 2); assay type: cell-based; details: FIG. 3 right; interferon-beta at 500 IU
smiles,measurement,setting,value
CCC(CC)COC(=O)[C@H](C)N[P@](=O)(OC[C@H]1O[C@@](C#N)(c2ccc3c(N)ncnn23)[C@H](O)[C@@H]1O)Oc1ccccc1 [Remdesivir],Viral infection of cells in plaque assay,SARS-CoV-2 [1],viral infection was not significantly restrained
same,EC50,SARS-CoV-2 [2],74 nM
same,Difference in Ct value versus virus only,SARS-CoV-2 [3],little difference in Ct value
